Assay results published in a protein production outcome set (Wang et al. 2014).

Assay: label from the status in PepcDB records

Sequence | protein production
MLDICLEKRVGTTLAAPKCNSSTVRFQGLAEGTKGTMKMDMEDADMTLWTEAEFEEKCTYIVNDHPWDSGADGGTSVQAEASLPRNLLFKYATNSEEVIGVMSKEYIPKGTRFGPLIGEIYTNDTVPKNANRKYFWRIYSRGELHHFIDGFNEEKSNWMRYVNPAHSPREQNLAACQNGMNIYFYTIKPIPANQELLVWYCRDFAERLHYPYPGELTMMNLTQTQSSLKQPSTEKNELCPKNVPKREYSVKEILKLDSNPSKGKDLYRSNISPLTSEKDLDDFRRRGSPEMPFYPRVVYPIRAPLPEDFLKASLAYGIERPTYITRSPIPSSTTPSPSARSSPDQSLKSSSPHSSPGNTVSPVGPGSQEHRDSYAYLNASYGTEGLGSYPGYAPLPHLPPAFIPSYNAHYPKFLLPPYGMNCNGLSAVSSMNGINNFGLFPRLCPVYSNLLGGGSLPHPMLNPTSLPSSLPSDGARRLLQPEHPREVLVPAPHSAFSFTGAAASMKDKACSPTSGSPTAGTAATAEHVVQPKATSAAMAAPSSDEAMNLIKNKRNMTGYKTLPYPLKKQNGKIKYECNVCAKTFGQLSNLKVHLRVHSGERPFKCQTCNKGFTQLAHLQKHYLVHTGEKPHECQVCHKRFSSTSNLKTHLRLHSGEKPYQCKVCPAKFTQFVHLKLHKRLHTRERPHKCSQCHKNYIHLCSLKVHLKGNCAAAPAPGLPLEDLTRINEEIEKFDISDNADRLEDVEDDISVISVVEKEILAVVRKEKEETGLKVSLQRNMGNGLLSSGCSLYESSDLPLMKLPPSNPLPLVPVKVKQETVEPMDP | failed
ERLTLDTRLRQALERNELVLHYQPIVELASGRIVGGEALVRWEDPERGLVMPSAFIPAAEDTGLIVALSDWVLEACCTQLRAWQQQGRAADDLTLSVNISTRQFEGEHLTRAVDRALARSGLRPDCLELEITENVMLVMTDEVRTCLDALRARGVRLALDDFGTGYSSLSYLSQLPFHGLKIDQSFVRKIPAHPSETQIVTTILALARGLGMEVVAEGIETAQQYAFLRDRGCEFGQGNLMSTP | not failed
MPRPGLKTRSKRRVYVRTPGGKVVIHYEPRKPGPARCAICGKPLNGVPRLIPSKLRKLAKTEKRPERPYGGYICPRCLSRLLRESIRASISS | failed
MHTPITTALPDYQSQHKKRLSWMPWLYFSLKEKHLTWAKPWQNEVQTNLCALETVTIGDNCFIAPEAQLFAEPNRDINIGNHCMIAADCFLHGPITLGNEVAINHGCSLDGGRVGIQIGDQTRIANHVTIYAFNHGMAPDTPIYQQASHSKGIVIGKDVWIGAQAGIVDGVTIGDHAVIGMGCIVTKDVPAWAIVAGNPARVIGDRRDK | failed
MADKLTDDQITEYRESFRLFDKNGDGSITKKELGTMMRSIGEKPTKADLQDLMNEADLDGDGTIDFPEFLCVMAKNQGHDQAPRHTKKTMADKLTDDQITEYRESFRLFDKNGDGSITKKELRTVMFSLGKNRTKADLQDMMNEVDLDGDGTIDFPEFLYLMAKNQGHDQAPRHTKKTMVDYQLTDDQILEFREAFRVFDKNGDGYITVNELRTTMRSLGETQTKAELQDMINEADADGDGTISFSEFVCVMTGKMIDTQSKKETYRVVNQGQGQVQRHTRNDRAGGTNWERDIAVGVASNIIASPISDFMKDRFKDLFEALLS | failed
MLKATGTVAPAMHVVFPCFSSRPLILPLRSTKTFKPLSCFKQQGGKGMNGVHEIELKVRDYELDQFGVVNNAVYANYCQHGQHEFMETIGINCDEVSRSGEALAVSELTIKFLAPLRSGCKFVVKTRISGTSMTRIYFEQFIFKLPNQEPILEAKGMAVWLDKRYRPVCIPSYIRSNFGHFQRQHVVEY | failed
TITKVAVGSDESKWGLKALEIAAAFADSWGAELDVISAVPNMKGSEDEGVMASFQEDLDVRIKPLEAAYPSLKINKQIVPGPAAGALTKASYDHDVVVVGSRGRGGFTGLLLGSTSQGLLQHAVGPVYVVPRKYVEA | failed
MANGIKRQHEPPRIVGDLLQSEIAEKQARSIRCQMTIAKLPLVKDIEQFDFTGTPVNEALVRELATRSLVADQRNVVLIGGTGTGKSHLAIAIARALIRNGTRGRFFNVVDLVNKLEAETRSGKQGRTADYLGRLDFVILDELGYLPFAQAGGQLLFHLISRLYERTSIIVTTNLAFGEWPTVFGDAKMTTALLDRLTHHCEIIETGNESWRFKNRALEHHHHHH | not failed
MRWLTGIEIHPGATIGRRFFIDHGMGIVIGETAEIGDDVTLYQGVTLGGTSWNKGKRHPTLENGVVVGAGAKVLGPFTVGAGAKIGSNAVVTKAVPAGATAVGIPGRIIVKSEDTEVEAKRKAMAEKIGFDAYGVSGDMPDPVARLEHHHHHH | failed
MTPFSYHKPASISEAVSLADASSHFIAGGTNLVDLMKENVVRPKRLIDISGLGLNGIHPTLNGGLLIGALVSNADLAWHPMIEQHYPLLSDAILAGASPQLRNMASTGGNLLQRTRCYYFYDTGTPCNKREPGSGCPARTGSNRIHAILGASDACVATHPSDMCVALAALEAVVHVQGPRGERQIPFAAFHRLPEDTPERDNQLAIDELVVAIELPPPVFEKHYRYLKIRDRASYAFALVSVAAALSFDGQVIRQARLALGGVAHKPWRDPVVERMLAGQAPCEALFTRAAKTLLQGAKPLSHNGFKVTLAQRAIVRALDDAARGAADGGPRP | failed
MRKKIIATVIGTSALAAVTWTNADAATTYKVKSGDSLWSIANKYNMSVAKLKSLNNLTSNVIFPNQSLKVSGSTSSSTSSNTSTGSTYTVKSGDTLSGIAAKYGTTYQKIMSLNGLSNFNIYPGQKLKVSGAASSSSSNTSGNTSSGSTTTYTVKSGDSLSAIAAKYGTTYQKIMSLNGLTNFNIYPGQKLKVSGKASTGGSGSSSTGSAGYKTPVFNHSNLYDWGQCTWHVFNKRAQIGKGISTYWWNANNWDTAAAADGYTIDRKATVGSILQSDMGYYGHVAFVESVNANGSITISEMNYSASPGIVTYRTIPASQVSSYVYIHLEHHHHHH | not failed
MMVLKVEELVTGKKNGNGEAGEFLPEDFRDGEYEAAVTLEKQEDLKTLLAHPVTLGEQQWKSEKQREAELPKKKLEQRSKLENLEDLEIIIQLKKRKKYRKTKVPVVKEPEPEIITEPVDVPTFLKAALENKLPVVEKFLSDKNNPDVCDEYKRTALHRACLEGHLAIVEKLMEAGAQIEFRDMLESTAIHWASRGGNLDVLKLLLNKGAKISARDKLLSTALHVAVRTGHYECAEHLIACEADLNAKDREGDTPLHDAVRLNRYKMIRLLIMYGADLNIKNCAGKTPMDLVLHWQNGTKAIFDSLRENSYKTSRIATF | failed
MSYSTIISNTSFLSLASKFTTRGSRLQCTVSMARSAVDETSDSGAFQRTASTFRNFVSKDSNSQFPAESGRYHLYISYACPWASRCLSYLKIKGLDDAISFSSVKPIWGRTKETDEHMGWVFPGSDTEVPGADPDHLNGAKSVRELYEIASPNYTGKYTVPVLWDKKLKTVVNNESAEIIRMFNTEFNHIAGNPDLDLYPSHLQAKIDETNEWIYNGINNGVYRCGFAKKQGPYEEAVEQVYEALDRCEEILGKHRYICGNTLTETDIRLFVTLIRFDEVSSYFQSKKKKYTICERISNVETLIQVYAVHFKCNKKLIREYPNLFNYTKDIFQIPGMSSTVNMNHIKQHYYGSHPSINPFGIIPHGPNIDYTSPHDRHRFSK | failed
RINNVTVKELFEAIQDTVQGLRDDSEDEDDPLYADADAEIEARSRGEKLHRPQPRREKPRPAPERRRMSAPLVDDVDEDVVSRPLFDDPSTAQSQKSSVETQRAARDVSETDEFPAVDEPTVVVPRKPSAPRMSLPQTPVTDVEAAADVVAAGRKAVQDAVKARESHNVGAALAPSTPAQPYEAPESHYAVPSTQLLIPGKEAKTHSEANDRMIEAISDVFAEFKVDAHVTGFSRGPTVTRYEVELGPGVKVSKITNLQSNLAYAVATDNVRLLTPIPGKSAVGIEVPNTDREMVRLGDVLNSESVHSDHDPMLIGLGKDIEGDFVAHSVQKMPHLLVAGSTGSGKSAFVNSLLVSLLTRATPEDVRLILVDPKMVELTPYEGIPHLITPIITQPKKAAAALQWLVEEMEQRYMDMKSTRVRHIKDFNRKVKSGEIQAPLGSQREYHPYPYIVCVVDELADLMMTAPKEIEDSIVRITQKARAAGIHLVLATQRPSVDVVTGLIKTNVPSRLAFATSSLTDSRVILDQAGAEKLIGMGDGLFIPQGGRPQRIQGAFVTDEEIQAVVDAAKAQGEPNYTEGVTEDKAAEAKKDIDADIGNDLEDLLQAVELVVTAQLGSTSMLQRKLRIGFAKAGRLMDLMETRGIVGPSEGSKAREVLVKPEELETTLWMIKGAKPEDAPKEDDWQSADSGVSDASDPSHGERAAYNPSSNAF | failed
MDKYDDLGLEASKFIEDLNMYEASKDGLFRVDKGASNNPEFEETRRVFATKMAKIHLQQQQQQQLLQEEALPRAGRSPINGGNRQGVSSKLAADGAAKPPLAVPTVAPGLATTTMAVQSSYPPQEQRTRPSAHGARPGSQNCGSREGPVSSQRPALHGLGPCEDPSCLTHGDYYDNFSLASPQWGDKPEESPSMSLSVGSGWPGCPGNDSLSHRSCGDSHPYHPQLSMCSGRSFESGQDSGIGGHSSEKPTGLWSTASSQRVNLGFSSTGLENGTPAQPKGTTVSAPMVPSSTSQGACLRRDSSLGYEAPGRVFKPLVDTQPWLQDGPKSYLSVSAPLSSTTSKDNAQTGMTAGLDPKLGCVESGTSPKPSPTSNVHPVMSAPSELSCKESPPSWSTDSSLGPVLPESPTPSRVRLPCQTLTPGPELGPSTAELKLEALTQRLEREMDAHPKADYFGACVKCSKGVFGAGQACQAMGDLYHDACFTCAACSRKLRGKAFYFVNGKVFCEEDFLYSGFQQSADRCFLCGHLIMDMILQALGKSYHPGCFRCVICNECLDGVPFTVDSENKIYCVRDYHKVLAPKCAACGLPILPPEGSDETIRVVSMDRDYHVECYHCEDCGLELNDEDGHRCYPLEDHLFCHSCHVKRLEKGPSPASLHQHHF | failed
MTVPVGATIHVGDSFVPMAEVLAIDKEDGDLTSKIKVDGEVDTTKAGTYVLTYTVTDSKGHEVTAKQTVTVKVRLEHHHHHH | not failed
MSSDRDGIRGGWATPGDDQPDAESSVETTGEFTIDYAPPAWYTQNASGDGGQGESEGADPPGGSAGSPPASAPTAPPAPRGPVPPLPGLTPPPHATHHGPSYVPAPAPGAPFTPPPPAPAPGAAFTPPPPPGPGAPFTPPAPPSGGPAGVPKLPVGSGFEPQPSPSQRSAPPEPEPEPEVRTPEPEPKAVAEPAPAADLASPAALPSFPAGGFQLQAPVPPPPAEEPGAAAEPEPEPDREPDTGDLDNGDLESGATMRFSAVALKREIAERAAAEDTAGEGPAAGADEARDTPDEPFVSTGFTDADTDAETDVDTESDFESVSDQAPDAESGGGHGDVADPRLGGSAPDAEPEPEPESEPVVLAAVAESESESAERVGDEPEDSVPTADVPVDAVPDDAAPPADSVPQDAVPQDATPPAPEGMPPLPPSYPPVAPAAAHQWPAQPQPPTQPQTAPAPPEQPGVAAQQPPFQPQAPQPAPAGWDAPPAPQPGYGFPQPGAQAPQPQPHSPAQPPGGYGFPQAPQAPHGPSPQQQPYPGVPQQQAPQAQGGGQAPPAQPGQPAQPGQPMQPGQPGQSGQPGQAPSAPQAAPHPPQAPPAQQPEYQPQAQQPQPQPQPQPYQQPADPRLGAAWPQPMQHDQRQATNPGAAPLGYTAAVELSSDRLVNNKRQKAKSSRPAAGGSRFKLGGKKEEAERQRKLDLIRTPVLSCYRIAVISLKGGVGKTTTTTALGSTLATERQDKILAIDANPDAGTLGRRVRRETGATIRDLVQAIPYLNSYMDIRRFTSQASSGLEIIANDVDPAVSTTFNDEDYRRAIDVLGQQYPIILTDSGTGLLYSAMRGVLDLADQLIIISTPSVDGASSASTTLDWLSAHGYADLVSRSITVISGVRETGKMIKVDDIVGHFQTRCRGVVVVPFDEHLSAGAEVDLDMMRPKVREAYFNLAAMVAEDFVRHQQSHGLWTSDGNPPPVAAPPMPGQQTPGQQMPGQPMPGQPMPGQQMPPQQGQPMPPQPGQPVPGQPYPPQPAPGQQQPYPQPGYNQPYAQPGYGYPQPGQPGHPGQPQQQPQQQQQPQQGQTPPPPPPQQ | failed
